For at least one compound, name, drawing or mass did not settle the structure.
What was measured:
Assay type in all cases: cell-based, murine
[1] = test system: HC e/n XV.B cells; assay: Ca2+-imaging (Fura-2) of intracellular calcium after application of agonists; settings: undifferentiated HC e/n XV.B cells
Method: (§1) Fluorescent Probe: Dynamic changes of intracellular calcium concentration were measured using the Fura-2 fluorescent probe (Roe et al. 1990, Cell Calcium 11:63-73). This fluorescent dye was chosen because of its selectivity, high quantum yield and extinction co-efficient. Fura-2 permeates the living cell as a acetoxymethylester and becomes trapped within the cell after hydrolysis by intracellular esterases. The calcium-sensitive free acid of Fura-2 is able to bind to calcium ions inside the cell. Fura-2 has an excitation maximum at 380 nm and the Fura2/calcium complex peaks at 340 nm. A change in intracellular calcium concentration was calculated by recording fluorescent video images at wavelengths of 340nm and 380nm excitation and 510nm emission and by dividing the grey values of the digitized video images of 380nm from 340nm.
(§2) Loading cells with Fura-2: A stock solution with 2mM Fura-2-acetoxymethylester in dimethylsulfoxide (DMSO) was diluted to 5-10 µM with serum free Minimal Essential Medium (MEM, Gibco) containing 1.5% bovine serum albumin and 5 mM calcium chloride. The cells were incubated in a Falcon 96 well plate for 45-60 minutes at 37°C. Subsequently the cells were washed twice in N-(2-Hydroxyethyl)piperazine-N'-(2-ethanesulfonic acid) (HEPES, 5mM) buffered Tyrode solution (HEPES buffered salt solution containing 130 mM NaCl, 5 mM KCl, 2 mM CaCl2, 1 mM MgCl2, 5mM NaHCO3, 11 mM Glucose).
(§3) Imaging procedure: 100 µl of Tyrode buffer was added to the plate wells and the cells were sequencially exposed to light at 340 nm and 380 nm under a fluorescent microscope (Nikon Diaphot). The exposition time was 100 ms. A series of video images at 3 second intervals was acquired and stored as digitised pictures in the image boards of an image analysis computer (Leica, Quantimet 570). After the acquisition of 8 images the test substances were applied. The grey levels of the cells, which correspond to the fluorescence intensity, were measured in the recorded video images. The ratio was determined by dividing the measured grey levels of the "380 nm images" by the grey levels of the "340 nm images" either from averaged images or from individual cells. For averaged results, the grey levels were measured over the whole images.
(§4) The cells were loaded with Fura 2/AM between day 3 and 7 in culture. A number of agonists were tested for their ability to activate specific receptors on the cell surface which lead to a rise in intracellular calcium. The rise in calcium concentration in the cytoplasm can occur after activation of specific calcium channels in the cell membrane, after activation of neurotransmitter receptors directly coupled to ion channels that are permeable to calcium ions (i.e. NMDA or AMPA type glutamate receptors), or by activation of receptors, which propagate the signal through the activation of specific G-proteins, which regulate the activity of different enzymes in the interior of the cell (Connor, Cell Calcium 14 (1993), 185-200; Crouch and Hendry, Medical Res. Rev. 13 (1993), 105-123). The activation of phospholipase C generates the second messengers diacylglycerol and inositoltriphosphate from phospholipids in the cell membrane. The binding of inositoltriphosphate to receptors localised on internal vesicles which store calcium ions leads to a transient rise in the concentration of calcium ions in the cytoplasm (Berridge, M.J. 1993, Nature 361: 315-325).

[2] = test system: HNMMCV11.2.0; assay: as above
Method: as §1, §2, §3, §4

[3] = test system: HNMMCV13.1.E; assay: as above
Method: as §1, §2, §3, §4

[4] = test system: HNMMCV13.1.F; assay: as above; settings: concentrations (glutamate 10µM to 10 mM; AMPA, kainic acid, serotonine, dopamine, carbachol up to 1mM; NMDA up to 500µM)
Method: as §1, §2, §3, §4

[5] = test system: HNMMCV14.1.A; assay: as above
Method: as §1, §2, §3, §4

[6] = test system: HC e/n XVB cells; assay: Whole-cell patch-clamp recording of ligand-activated currents
Method: (§5) Electrophysiological setup: Membrane currents were measured with the patchclamp technique in the whole-cell recording configuration (Hamill et al. 1981, Pfluegers Arch. 391:85-100). Current signals were amplified with conventional electronics (EPC-9 amplifier, HEKA Elektronik GmbH, Lambrecht, Germany), filtered at 10kHz, and sampled at 5 kHz by an interface connected to an IBM AT-compatible computer system, which also served as a stimulus generator.
(§6) Solutions and electrodes: The standard bathing solution contained (in mM): Nacl 150, KCL 5, MgCl2 1.8, HEPES 5, and glucose 10. In some experiments an equimolar amount of NaCl was replaced by 5mM BaCl2. Recording pipettes had resistances about 5MΩ (Hilgenberg, Malsfeld, Germany). The pipettes contained (in mM): KCL 140, CaCl2 0.5, EGTA 5, MgCl2 2, and HEPES 10. The pH was adjusted to 7.4. In some experiments the pipette solution was designed to minimize the contribution of voltage-activated currents. In this case, investigating the ligand-activated currents, the pipette solution contained (in mM): CsCl 140, EGTA 10, and HEPES 10.
(§7) Ligands were dissolved in the extracellular saline solution and applied via an U-tube application system. To record ligand-induced currents, the membrane potential was clamped to -70mV. For measurements of voltage-activated currents, cells were held at -70mV and every second the membrane was stepped through a 50 msec. de- or hyperpolarising test pulse to a potential between -170 and +20 mV.

[7] = test system: HNMMCV14.1.A; assay: as above; settings: for ligand-activated currents (electrophysiological recordings): 14.1.A, membrane potential clamped to -70mV; for ligand-induced inward currents (result in words): HNMMCV14.1.A
Method: as §5, §6, §7

[8] = test system: metabotropic glutamate receptor(s) (mGluR) expressed by HNMMCV14.1A cells; assay: Phosphoinositide hydrolysis: accumulation of 3H-inositol phosphates
Method: Phosphoinositide hydrolysis was determined by measuring the accumulation of ^3H-inositol phosphates. The cells were plated in 48-well plates (Costar) at a density of 10000 cells per well and incubated for 4-5 days at 37°C, 7% CO2. Then the cells were labeled by incubation with 4 µCi of myo-2-^3H-inositol per ml medium (specific activity: […]: Amersham). After 24 h LiCl (10 mM final concentration) was added to the cells for 1 h. Agonists were then added at the concentrations indicated. The incubation was stopped after 1 h by replacing the medium with 200 µl ice-cold methanol. 400 µl of destilled water was added and the sample was directly applied to AG-1X8 ion exchange columns (AG-1X8 resin: BioRad). Free inositol and glycerophosphoryl-inositol were washed away with 16 ml destilled water followed by 10 ml 5 mM disodium-tetraborate, 60 mM sodium formate. Total ^3H-inositol phosphates (IP1, IP2, IP3) were eluted with 7 ml of 100 mM formic acid, 1 M ammonium formate. Radioactivity of the eluted ^3H-inositol phosphates was determined by liquid scintillation counting after addition of 13 ml liquid scintillation cocktail (Ultima Gold: Canberra Packard). Measurements were performed in triplicates for each experimental point. Untreated controls were set as 100% and the other values calculated in relation to this. […]

[9] = test system: HNMMCV13.1.E; assay: Whole-cell patch-clamp recording of ligand-activated currents
Method: as §5, §6, §7

| SMILES | rise in intracellular calcium concentration (result in words) [1] | rise in intracellular calcium concentration (result in words) [2] | rise in intracellular calcium concentration (result in words) [3] | rise in intracellular calcium concentration (result in words) [4] | rise in intracellular calcium concentration (result in words) [5] | ligand-activated currents (electrophysiological recordings) ([6]; XV. B, membrane potential clamped to -70mV) | ligand-induced inward currents (result in words) ([6]; differentiated HC e/n XVB cells, AMPA 100µM, NMDA 1mM, kainate 1mM, glutamate 1mM) | ligand-activated currents (electrophysiological recordings) [7] | effect on inositolphosphate accumulation (result in words) [8] | ligand-induced inward currents (result in words) [9] | ligand-induced inward currents (result in words) [7] |
| --- | --- | --- | --- | --- | --- | --- | --- | --- | --- | --- | --- |
| CN[C@H](CC(=O)O)C(=O)O [NMDA, N-methyl-D-aspartate] | did not result in significant calcium signals | did not result in significant calcium signals | did not result in significant calcium signals | did not result in significant calcium signals | did not result in significant calcium signals | + / - | evoked responses | + / - |  |  |  |
| N[C@@H](CCC(=O)O)C(=O)O [Glutamate, L-glutamate] |  | significant rise | significant rise | significant rise | significant rise |  |  | + / - | concentration dependent increase | only small inward currents | only small inward currents |
| CC(=O)OCC[N+](C)(C)C [Acetylcholine, acetylcholine] |  |  |  |  |  |  |  |  |  |  | only a minority |
| N[C@H](CCC(=O)O)C(=O)O [D-glutamate] |  |  |  |  |  |  |  |  | without effect |  |  |

From patent publication EP0773287A1, “Immortalised embryonic hyppocampal cells and their use” (BAYER AG, priority 1995, dated 1997)
